# Measured values from PubChem BioAssay AID2685 (National Center for Advancing Translational Sciences (NCATS), 2010).
# Some of the results follow. These are further read-outs of the screen, such as a control signal, another cell line or another target. No call is given for them. The list favours compounds with an active or inconclusive main result. The note in brackets gives the kind of curve behind each potency; many fits are weak.
# Experiment: qHTS Assay for Lipid Storage Modulators in Drosophila S3 Cells;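 on cell number change: cells counted by Cell Tracker Red CMTPX staining in the red channel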
# Settings: BODIPY lipid droplet fluorescence, 18-24 h; for cell number change: measured here: cell count max response, cells fed with added oleic acid
# In short: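 Drosophila S3 cells loaded with oleic acid (400 uM, as added) and compounds at several concentrations; lipid droplets imaged by 488-nm laser-scanning cytometry, 500–530 nm intensity and object ratio to cell channel. Percent activity normalized to 20 uM Triacsin C.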
# [1] = measured here: lipid fluorescence (Fed channel) AC50, cells fed with added oleic acid
# [2] = measured here: cell number channel AC50, cells fed with added oleic acid
Structure (SMILES),cell number change [%],AC50 [1],AC50 [2]
COc1ccccc1/C=C/CN1CCC(n2nccc2NC(=O)CCc2ccccc2)CC1,-28.5,"23.1 µM [falling, single point]",–
Cc1ccc(C)c(N2CCN(S(=O)(=O)c3ccc4c(c3)CCC(=O)N4)CC2)c1,7.52,–,–
CC(=O)Nc1ccc(S(=O)(=O)NNC(=O)COc2ccc(Cl)cc2Cl)cc1,49,"8.2 µM [rising, partial curve]","16.4 µM [rising, partial curve]"
COc1cc(CNc2nc3ccccc3n2C)cc(OC)c1OC,16.2,"4.61 µM [rising, partial curve, poor fit]",–
CCOC(=O)c1ccc(N2C(=O)c3n[nH]c(C)c3C2c2cccnc2)cc1 (stereo not given),-5.27,"0.164 µM [rising, full curve, poor fit]",–
CCOc1ccc(/C=C2\SC(=S)N(CCC(=O)N(CCO)c3ccccc3)C2=O)cc1,-33.8,–,"14.6 µM [falling, single point]"
CCS(=O)(=O)NCCc1csc(-c2ccc(OC)c(OC)c2)n1,10.6,"2.59 µM [rising, single point]",–
CN(C(=O)COc1ncnc2c1cnn2-c1ccccc1)C1CCCCC1,2.06,–,–
CNC(=S)N(Cc1ccco1)Cc1cc2cc(OC)ccc2[nH]c1=O,1.61,–,–
COc1ccc(C(=O)N2CCN(Cc3ccccc3[N+](=O)[O-])CC2)cc1,-10.1,"6.51 µM [rising, single point]",–
CCN(CC)C(=O)c1[nH]cnc1C(=O)NCc1ccc(CNC(=O)OC(C)(C)C)cc1,21.9,"0.00411 µM [rising, full curve, poor fit]",–
Cn1c(C(=O)NCc2cccs2)cc2oc3ccccc3c21,–,"16.4 µM [falling, single point]",–
O=C(CC1C(=O)NCCN1Cc1ccccc1C(F)(F)F)NC1CCCCCC1 (stereo not given),27.2,"10.3 µM [falling, partial curve]",–
COc1ccc(C2CC(c3ccccc3OC(C)=O)=NN2C(=O)/C=C/c2ccccc2)cc1OC (stereo not given),-21.6,"10.3 µM [falling, partial curve]",–
CCN(CC(=O)NCc1cccs1)C(=O)CCc1c[nH]c2ccccc12,–,"5.17 µM [rising, partial curve, poor fit]",–
CCCOC(=O)/C(=C\c1ccc([N+](=O)[O-])o1)NC(=O)c1ccccc1,-21.7,"16.4 µM [falling, partial curve, poor fit]",–
COc1ccc(CCNC(=O)C2CCN(C(=O)c3ccc([N+](=O)[O-])cc3)CC2)cc1,15.8,–,–
Fc1ccc(/C=N/n2c(C3CCCCC3)n[nH]c2=S)cc1,-11.1,–,–
CCCCOc1ccc(S(=O)(=O)Nc2cc(OC)ccc2OC)cc1,-24.8,"18.4 µM [rising, single point]",–
CN(CC(=O)Nc1c(Cl)cccc1Cl)C(=O)C1CC(=O)N(Cc2ccccc2)C1 (stereo not given),-44.8,"18.4 µM [falling, partial curve, poor fit]","32.6 µM [falling, single point]"
O=C(NCC1CCCO1)c1ccc(-c2cccc(C(F)(F)F)c2)o1 (stereo not given),6.45,–,–

Structure (SMILES),cell number change [%],AC50 [1],AC50 [2]
NS(=O)(=O)c1ccc(N=C2C(=O)Nc3ccccc32)cc1,-57.6,"29.1 µM [falling, single point]",–
Cc1ccc(C)c(N2CCN(C(=O)C3CCCCN3S(=O)(=O)c3ccc(F)cc3)CC2)c1 (stereo not given),-3.61,"29.1 µM [rising, single point]",–
O=C1/C(=C/c2ccco2)Cc2ccccc21,–,"25.9 µM [falling, single point]",–
CCOC(=O)C1CCN(CC(=O)Nc2cc(S(=O)(=O)N3CCCCC3)ccc2Cl)CC1,122,–,–
COc1ccc(Cl)cc1NC(=O)c1cc(-c2ccccc2O)n[nH]1,-15.6,–,–
Cc1cc([N+](=O)[O-])nn1Cc1ccc(F)cc1,-64.7,–,"1.84 µM [falling, partial curve]"
O=C(c1cccc(Cl)c1)N1CCN(Cc2ccccc2)CC1,2.91,"29.1 µM [rising, single point]",–
COc1cc(NC(=O)c2cc3ccccc3cc2O)c(OC)cc1Cl,-69.3,"16.4 µM [falling, partial curve]","18.4 µM [falling, single point]"
CCn1c(-c2csc3ccccc23)n[nH]c1=S,15.1,"9.2 µM [rising, partial curve]",–
N#Cc1cc2c(nc1SCC1COc3ccccc3O1)CCC2 (stereo not given),0.849,"4.11 µM [rising, full curve]",–
Cn1c(N/N=C/c2cc3ccccc3nc2Cl)nc2ccccc21,44.5,–,"23.1 µM [rising, partial curve]"
N#CC1(NC(=O)COC(=O)CCN=C2NS(=O)(=O)c3ccccc32)CCCCC1,-22.6,"2.31 µM [falling, single point]",–
C#CC(CC)(CC)NC(=O)NC1CCCCC1,-25,"29.1 µM [falling, single point]",–
CCCCCCOc1ccc(N2C(=O)CC(SCCN)C2=O)cc1 (stereo not given),-17.5,"0.146 µM [falling, full curve, poor fit]",–
COc1cc(NC(=O)C(C)C)ccc1NC(=O)c1ccco1,21.7,–,"0.291 µM [rising, full curve, poor fit]"
O=S(=O)(c1cccs1)N1CCN(c2cccc(Cl)c2)CC1,2.63,"35.5 µM [rising, single point]",–
CC(OC(=O)C1=COCCO1)C(=O)NC1CCCCC1C (stereo not given),7.04,–,–
COc1ccc(NS(=O)(=O)c2cccc(C(=O)NC3CCC(O)CC3)c2)cc1 (stereo not given),-38.1,"11.6 µM [falling, single point]","11.6 µM [falling, single point]"
CC(C)Cn1c(N)c(C(=O)COC(=O)CCc2nc3ccccc3c(=O)[nH]2)c(=O)n(C)c1=O,16,"6.51 µM [falling, single point]","6.51 µM [falling, single point]"
CC1=CCC(C(=O)O)C(C(=O)Nc2nc3ccc(S(C)(=O)=O)cc3s2)C1 (stereo not given),-22.3,"20.6 µM [falling, single point]",–
